In US20200384134A1, “IMAGING METHOD OF AMPA RECEPTORS IN BRAIN OF PRIMATE ORGANISM, PROGRAM, DIAGNOSTIC AGENT, COMPANION DIAGNOSTIC AGENT, DRUG, SCREENING METHOD, INPUT TERMINAL, SERVER AND SYSTEM” (Public University Corporation Yokohama City University, priority 2017, published 2020):

Test system: AMPA receptors in the brain
Experiment: PET imaging in medial temporal lobe epilepsy patients
Assay type: in vivo, human
Procedure: PET imaging was performed on medial temporal lobe epilepsy patients of three examples. […] Absorption correction CT imaging was performed for about one minute, and then [^11C] K-2 of about 370 MBq was administered intravenously over one minute. Thereafter, imaging was performed for 90 minutes. For the imaging, the PET/CT device “Aquiduo” (Toshiba Medical Systems Corporation) was used. In list data which was collected, dynamic images were reconstructed by the OS-EM method.
The reconstructed image was analyzed with the PMOD image analysis software (PMOD technologies) by integrating a PET image on a standardized MRI image. As the reconstructed image, a SUVR (standardized uptake value ratio) image was used. The SUVR image was produced by dividing an addition average image for 20 minutes until the elapse of 30 to 50 minutes since the administration of the PET drug by the average value of the amount of radiation for the same time which was accumulated in corpus callosum that was a reference region.
The reconstructed image was analyzed with the PMOD image analysis software (PMOD technologies) by integrating a PET image on a standardized MRI image. As the reconstructed image, a subtraction image was used so as to produce a reconstructed image as follows. An average image (image including a large number of specific bonds to the AMPA receptors) for 20 minutes from the elapse of 30 minutes (an example of the first time) to the elapse of 50 minutes (an example of the second time) since the administration of the PET drug and an average image (image including a large amount of blood flow ingredient) for 1 minute from the elapse of 1.5 minutes to the elapse of 2.5 minutes were calculated. In each time period, by division by the average value of the amount of radiation accumulated in the entire brain, the SUVR image in which the entire brain was the reference region was calculated. From the SUVR image for 20 minutes from the elapse of 30 minutes to the elapse of 50 minutes since the administration of the PET drug, the SUVR image for 1 minute from the elapse of 1.5 minutes to the elapse of 2.5 minutes was subtracted, and thus a difference was calculated, with the result that the subtraction image was produced. […]
The reconstructed image was analyzed with the PMOD image analysis software (PMOD technologies) by integrating VOIs including a plurality of regions of frontal lobe, temporal lobe, occipital lobe, parietal lobe, hippocampus, amygdala, putamen, corpus callosum, cerebellum, bridge and the like with one formed on a standardized MRI image. […] In each time period, by division by the average value of the amount of radiation accumulated in the entire brain, the SUVR image in which the entire brain was the reference region was calculated. […]

In the case of `[11CH3]N(CCSc1cc(F)c(OCC(N)=O)c(F)c1)S(=O)(=O)c1ccccc1` [[^11C] K-2, [4-[2-(benzenesulfonyl-[^11C]methyl-amino)-ethylsulfanyl]-2,6-difluorophenoxy]-acetamide], the “accumulation in medial temporal lobe on a focus side, SUVR image” value (30 to 50 minutes after administration, reference region corpus callosum, FIG. 15) is reported as “high accumulation”, the “accumulation in medial temporal lobe on the focus side, subtraction image” value (SUVR 30-50 minutes minus SUVR 1.5-2.5 minutes, entire brain as reference, FIG. 16) is reported as “high accumulation” and the “Asymmetry index (AI), [11C] K-2 subtraction images compared with SUVR image of FDG” value (medial temporal lobe epilepsy patients, FIG. 18) is reported as “significantly high value”. For the same compound, the “Asymmetry index (AI), epilepsy patient compared with healthy person” value (subtraction images, temporal lobe VOIs, FIG. 17) was “significantly high AI”.
